# Values joined by “and” are separate entries in the source; they are usually repeats but may differ in a detail not shown here. Equal values may be shown once. Out of some 580,000 compounds screened, about 6,100 (1.1%) were called active. The shares of active, inactive and inconclusive entries below differ from those in the screen. The call rests on the fitted dose curve; in most records, active means well fitted inhibition curve with a large enough effect; inconclusive means small, poorly fitted or top-dose-only effect, or another doubt; inactive means no such curve, though single readings can be large or run the other way. Potencies of inconclusive entries are doubtful fits and often do not repeat.
# Chains of the proteins cited; added tags and fusions are not shown. Lines headed by an entry give the natural chain unless they say otherwise; changes in a name come on top.
# UniProt P18054: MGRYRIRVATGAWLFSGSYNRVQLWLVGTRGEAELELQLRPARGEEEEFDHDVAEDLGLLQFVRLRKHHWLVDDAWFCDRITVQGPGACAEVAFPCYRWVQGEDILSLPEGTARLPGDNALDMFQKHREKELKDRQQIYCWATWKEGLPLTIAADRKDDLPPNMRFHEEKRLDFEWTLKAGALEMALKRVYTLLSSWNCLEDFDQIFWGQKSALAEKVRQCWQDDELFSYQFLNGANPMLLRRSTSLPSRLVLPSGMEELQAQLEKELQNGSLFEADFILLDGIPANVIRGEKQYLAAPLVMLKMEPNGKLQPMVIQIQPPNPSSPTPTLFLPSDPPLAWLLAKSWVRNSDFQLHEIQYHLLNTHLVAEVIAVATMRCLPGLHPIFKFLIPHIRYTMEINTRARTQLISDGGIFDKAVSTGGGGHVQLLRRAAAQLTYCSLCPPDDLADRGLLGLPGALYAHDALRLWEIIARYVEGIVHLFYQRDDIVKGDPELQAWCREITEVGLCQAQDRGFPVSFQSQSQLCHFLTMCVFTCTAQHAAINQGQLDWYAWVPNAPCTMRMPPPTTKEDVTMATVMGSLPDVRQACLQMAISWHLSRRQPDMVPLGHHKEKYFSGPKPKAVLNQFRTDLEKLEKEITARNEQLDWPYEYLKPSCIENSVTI
# Biological target: Polyunsaturated fatty acid lipoxygenase ALOX12 (Homo sapiens) (UniProt P18054)
# Test: Primary qHTS assay for inhibitors of human arachidonate 12S-lipoxygenase (ALOX12): Round 2
# Details: purified 12hLO, xylenol orange hydroperoxide absorbance; activity change, negative = inhibition: at 108 µM (top of the series) unless noted
# Procedure, shortened: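 Hydroperoxide product was detected by ferrous iron/xylenol orange as the 573 to 405 nm absorbance ratio. Arachidonic acid at 40 uM (final) was turned over for 30 min at room temperature by 150 nM human 12hLO, pH 7.0 Hepes buffer, after 15 min compound preincubation.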
# On the % scale 0 is the no-effect control and ±100 the full control effect; potency means the concentration at half of the fitted maximal effect.
SMILES,Potency,"activity change, negative = inhibition"
Cc1ccc(S(=O)(=O)N2CCCOC2CNC(=O)C(=O)NCCC2=CCCCC2)cc1 (stereo not given),"inconclusive: 63.1 µM [inhibitor, partial curve, poor fit]",–
COc1ccc(Oc2ncc3nc(-c4ccc(Cl)cc4)c(=O)n(C4CC4)c3n2)cc1,"inconclusive: 39.8 µM [inhibitor, single point]",–
COC(=O)c1c(C)cc(C)n2c1nc1ccccc12,"inconclusive: 31.6 µM [inhibitor, partial curve, poor fit]",–
Cc1ccc(Sc2c(C)nn(C(=O)COc3ccccc3)c2C)cc1,inactive,–
COc1cc(NC(=O)Cn2ccn(Cc3ccccc3OC)c(=O)c2=O)cc(OC)c1,–,inconclusive: -39.2% [inhibitor]
Cc1cc(C)n2c(NC3CCCCC3)c(-c3cccnc3)nc2n1,inactive,–
CCOC(=O)c1c(S(=O)(=O)N2CCCC(C(=O)N(C)Cc3ccccc3)C2)c(C)n(C)c1C (stereo not given),inactive,–
Cc1cc(C)n(C(=O)/C(C#N)=N\Nc2ccccc2[N+](=O)[O-])n1,"inconclusive: 79.4 µM [inhibitor, partial curve, poor fit]",–
O=C(NCCNc1ncccn1)Nc1ccc2c(c1)Cc1ccccc1-2,inactive,–
COc1cc(C2C3=C(CC(C)(C)CC3=O)OC3=C2C(=O)CC(C)(C)C3)ccc1OS(=O)(=O)c1ccc(C)cc1,"inconclusive: 2.82 µM [inhibitor, full curve]",–
Cc1ccc(C(c2sc3nc(-c4ccco4)nn3c2O)N2CCOCC2)cc1 (stereo not given),active: 14.1 µM,–
Cn1nc(C(=O)N2CCC(n3c(=O)[nH]c4ccccc43)CC2)c2ccccc2c1=O,"inconclusive: 126 µM [inhibitor, single point]",–
Cc1ccc(C(=O)C(C)OC(=O)Cc2n[nH]c(=O)c3ccccc23)cc1 (stereo not given),"inactive and inconclusive: 28.2 µM [inhibitor, partial curve, poor fit]",–
Cc1cccc(-n2c(-c3ccco3)nc3c(cnn3-c3ccccc3C)c2=O)c1,"inconclusive: 89.1 µM [inhibitor, partial curve, poor fit]",–
CCN(C(=O)COC(=O)c1c(C)nn(-c2ccccc2)c1C)C1CCS(=O)(=O)C1 (stereo not given),inactive,–
CC(C)NC(=O)Nc1ccc2c(c1)C(=O)N([C@H](C)CO)C[C@@H](C)[C@@H](CN(C)C(=O)NC1CCCCC1)O2,"inconclusive: 89.1 µM [inhibitor, single point]",–
CSC1=NCCN1C(=O)c1ccc(S(=O)(=O)N(C)C)cc1,inactive,–
N#Cc1c(SCC(=O)c2ccccc2)nsc1SCC(=O)c1ccccc1,"inconclusive: 39.8 µM [inhibitor, partial curve]",–
COc1cc(NC(=O)c2ccc3c(c2)C(=O)N(CCC(C)C)C3=O)c(C(=O)O)cc1OC,"inconclusive: 112 µM [inhibitor, single point]",–
CCc1sc(C(=O)Nc2cccnc2)cc1Br,active: 25.1 µM,–

# Quoted from the listing:
# In Potency, `Cc1cc(C)n2c(NC3CCCCC3)c(-c3cccnc3)nc2n1` has inactive
# In Potency, `CCN(C(=O)COC(=O)c1c(C)nn(-c2ccccc2)c1C)C1CCS(=O)(=O)C1` (stereo not given) has inactive

# (listing goes on)

SMILES,Potency,"activity change, negative = inhibition"
CC(Oc1cccc(Cl)c1)C(=O)Nc1ccc(S(N)(=O)=O)cc1 (stereo not given),"inconclusive: 44.7 µM [inhibitor, single point]",–
COc1ccc(/C=C(/CCCC(=O)O)c2nc3ccccc3s2)cc1C,"inconclusive: 56.2 µM [inhibitor, partial curve, poor fit]",–
CCC(=O)N1CCc2cc(Br)cc(S(=O)(=O)CCC(=O)N3CCN(c4ccccc4OC)CC3)c21,"inconclusive: 100 µM [inhibitor, partial curve, poor fit]",–
CCc1sc(C(=O)N(CCOC)c2c(N)n(Cc3ccccc3)c(=O)[nH]c2=O)cc1C,"inconclusive: 141 µM [inhibitor, single point]",–
COc1cccc(C(=O)N2CCC(N3C[C@H](O)C[C@H]3C(=O)Nc3ccc4c(c3)OCCO4)CC2)c1,inactive,–
O=C(NCc1cccc2ccccc12)C1(c2ccc(Cl)cc2)CCOCC1,"inconclusive: 7.94 µM [inhibitor, full curve, poor fit]",–
CCC(CC)=N/N=C/c1c(O)n(CC)c2cc(C3=NNC(=O)CC3)ccc12,inactive,–
COc1ccc(CNC(=S)Nc2ccc(S(N)(=O)=O)cc2)cc1,"inconclusive: 50.1 µM [inhibitor, partial curve, poor fit]",–
CC/C(=N\NC(=O)c1csc(C)c1C)c1cccs1,"inconclusive: 25.1 µM [inhibitor, partial curve, poor fit]",–
O=C(c1ccccc1Cl)N1CCC2(CC1)CCN(CCc1ccccc1)c1ccccc1O2,"inconclusive: 79.4 µM [inhibitor, single point]",–
CCO/C=C1\N=C(c2ccc(F)cc2)OC1=O,"inconclusive: 39.8 µM [inhibitor, partial curve, poor fit]",–
CCc1ccc(-c2csc(Nc3ccc(S(=O)(=O)Nc4nc(C)cc(C)n4)cc3)n2)cc1,"inconclusive: 44.7 µM [inhibitor, partial curve]",–
COc1ccc(NC(=O)C2(C)Cc3c(-c4ccc(N(C)C)cc4)ccnc3O2)cn1 (stereo not given),"inconclusive: 50.1 µM [inhibitor, partial curve, poor fit]",–
FC(F)(F)c1ccc(CCNC(=S)NC2CC3CCC2C3)cc1 (stereo not given),"inconclusive: 35.5 µM [inhibitor, partial curve, poor fit]",–
Cc1ccc(-c2csc3ncnc(Oc4ccc5c(C)cc(=O)oc5c4)c23)cc1,inactive,–
CCCN1CCC(NC(=O)Cc2ccc(C)cc2)CC1,inactive,–
O=C1C2CC=CCC2C(=O)N1c1ccc(NCCc2ccc(O)cc2)c([N+](=O)[O-])c1 (stereo not given),inactive,–
COc1ccc(OC)c(C(c2nnnn2CCC(C)C)N2CCN(C(=O)c3ccco3)CC2)c1 (stereo not given),"inconclusive: 31.6 µM [inhibitor, single point]",–
Cc1sc2nc(SCC(=O)Nc3cccc(S(N)(=O)=O)c3)[nH]c(=O)c2c1C,"inconclusive: 39.8 µM [inhibitor, partial curve, poor fit]",–
CN(C)c1ccc(N=Cc2c(O)ccc3ccccc23)cc1,"inconclusive: 35.5 µM [inhibitor, partial curve, poor fit]",–

# Reference: PubChem BioAssay AID1671190 (National Center for Advancing Translational Sciences (NCATS), 2021)
